Drawing on PubChem BioAssay AID248 (DTP/NCI, 2004), this text covers survivor count and T/C for 32 compounds.

The assay has as its system L1210 leukemia ip in BDF1 mice, survival T/C. Nature of the assay: NCI In Vivo Anticancer Drug Screen. Data for tumor model L1210 Leukemia (intraperitoneal) in B6D2F1 (BDF1) mice. The following applies: T/C endpoint: mean survival time, higher T/C = longer survival.
Where [1] appears, read: dose: 400.0 mg/kg/injection, schedule: Q01DX009 (ip), vehicle: Klucel (hydroxypropylcellulose) (HPC).
Setting [2] is: dose: 150.0 mg/kg/injection, schedule: Q01DX001 (ip), vehicle: saline.
Setting [3] is: dose: 300.0 mg/kg/injection, schedule: Q01DX001 (ip), vehicle: saline.
The mark [4] stands for this setting: dose: 400.0 mg/kg/injection, schedule: Q04DX003 (ip), vehicle: Klucel (hydroxypropylcellulose) (HPC).
The mark [5] stands for this setting: dose: 400.0 mg/kg/injection, schedule: Q04DX003 (ip), vehicle: saline with Tween-80.
The mark [6] stands for this setting: dose: 400.0 mg/kg/injection, schedule: Q01DX009 (ip), vehicle: saline with Tween-80.
The mark [7] stands for this setting: dose: 100.0 mg/kg/injection, schedule: Q04DX002 (ip), vehicle: DMSO.
Where [8] appears, read: dose: 400.0 mg/kg/injection, schedule: Q01DX001 (ip), vehicle: saline.
The mark [9] stands for this setting: dose: 200.0 mg/kg/injection, schedule: Q01DX001 (ip), vehicle: saline.

The list shows only some results of the screen, not a fair sample: it is rich in T/C values a quarter to a half above the control, in often repeated tests (any T/C) and in doses without a T/C. Further doses and runs are listed elsewhere. T/C is the treated group as % of the vehicle group. Some doses have a count of surviving animals in place of a T/C: the source holds a T/C of zero for them, seemingly a mark for toxic or unscored doses. Some doses without a T/C left all or most animals alive at the check, yet need not have been tolerated: survival well below the control is almost never listed, so the zero probably covers shortened survival too. Survivors were counted at the toxicity check, usually on the fifth day, unless a day is given; later deaths do not show. Schedule codes are those of the source, taken here to give the interval after Q, in days (D) or hours (H), and the number of doses after X. Some doses were run more than once; their values stand side by side, smallest first. Some schedules carry Z or #; the key to these is not given. Where survival is the endpoint, the PubChem record calls one and a half times the control and up active, and a quarter to a half above the control has no call in these data; cut-offs in other NCI protocols can differ. Some T/C values are followed by the survivors on the day toxicity was checked, most often the fifth; without a count, all were alive then.

For `CCCCCCCCCCCCNC1=C(Cl)C(=O)c2ccccc2C1=O`, for the setting “dose: 1.4 mg/kg/injection, schedule: Q01DX Z (ip), vehicle: methylcellulose (MC)”, the survivor count is listed as 3 of 6.
Take `O=C1C=C(c2c(-c3ccccc3)[nH]c3ccccc23)C(=O)c2ccccc21`: under “dose: 400.0 mg/kg/injection, schedule: Q01DX001 (ip), vehicle: other”, the survivor count is listed as 2 of 4.
Consider `CN1C(=O)CN=C(c2ccc[nH]2)c2cc(Cl)ccc21` (tested in a mixture with another compound), for which the survivor count under setting [1] was 0 of 6.
Take `Cn1nc(C(N)=O)c2c(N)ncnc21`: the survivor count (dose: 60.0 mg/kg/injection, schedule: Q01DX001 (ip), vehicle: carboxymethylcellulose (CMC)) is 3 of 6.
Regarding `O=C(O)C(O)C(O)C(O)C(O)C(O)CO.[Cu+2]` (stereo not given), the survivor count was 6 of 6 (dose: 60.0 mg/kg/injection, schedule: Q01DX001 (ip), vehicle: saline); 0 of 6 (dose: 75.0 mg/kg/injection, schedule: Q01DX001 (ip), vehicle: saline); 0 of 6 under setting [2]; 0 of 6 under setting [3].
As to `O=c1[nH]cnc2ccnn12`, the survivor count (dose: 200.0 mg/kg/injection, schedule: Q01DX009 (ip), vehicle: saline) is 1 of 6 and the survivor count (dose: 400.0 mg/kg/injection, schedule: Q04DX003 (ip), vehicle: saline) was 0 of 6.
As for `O=C(O)c1cc2ccccc2s1`, the survivor count under setting [4] is reported as 0 of 6.
For the compound `CC(C)=CCn1c(=O)c2c(ncn2C)n(C)c1=O`, under setting [5], the survivor count is recorded as 1 of 3.
For the compound `O=C(CC(=O)CC(O)(C(F)(F)F)C(F)(F)F)CC(O)(C(F)(F)F)C(F)(F)F`, for the setting “dose: 10.0 mg/kg/injection, schedule: Q01DX009 (ip), vehicle: saline”, the survivor count is given as 0 of 6.
`C[N+]12C(=O)CC3OCC=C4C[N+]5(C)CCC6(c7ccccc71)C2C3C4CC65O` (stereo not given): the survivor count by setting is: (dose: 38.0 mg/kg/injection, schedule: Q01DX001 (ip), vehicle: other) 0 of 6; (dose: 75.0 mg/kg/injection, schedule: Q01DX001 (ip), vehicle: other) 0 of 6; (dose: 150.0 mg/kg/injection, schedule: Q01DX001 (ip), vehicle: other) 0 of 6; (dose: 300.0 mg/kg/injection, schedule: Q01DX001 (ip), vehicle: other) 0 of 6.
Consider `Cc1nc(/N=N/N(C)C)c(C(N)=O)[nH]1`, for which the T/C by setting is: (dose: 100.0 mg/kg/injection, schedule: Q01DX009 (ip), vehicle: saline with Tween-80) 127 % of control [5 of 6 alive]; (dose: 200.0 mg/kg/injection, schedule: Q01DX009 (ip), vehicle: saline with Tween-80) 144 % of control; under setting [6], 147 % of control.
Take `Cc1c(Cl)cccc1NC(=O)Oc1ccc(-c2ccccc2)cc1`: the survivor count under setting [6] was 3 of 3 and 6 of 6.
`Cc1c([N+](=O)[O-])cc(C(C)(C)C)c(OC(=O)c2ccccc2)c1[N+](=O)[O-]`: the survivor count (dose: 400.0 mg/kg/injection, schedule: Q04DX002 (ip), vehicle: saline with Tween-80) was 3 of 3.
With `CC(C)(C)C(=O)OCn1cnc2c(=N)n(O)cnc21`, the survivor count under setting [4] was 6 of 6.
Regarding `CCOC(=O)C1CCC/C1=N\N=C(N)N` (stereo not given) (tested in a mixture with another compound), the survivor count (dose: 480.0 mg/kg/injection, schedule: Q01DX Z (oral), vehicle: methylcellulose (MC)) is recorded as 3 of 6.
For the compound `CC12CCCCC1CC(=O)/C(=C\O)C2` (stereo not given), under setting [7], the survivor count was 2 of 3.
As for `C=CCNC(=O)/C=C/C(=O)O`, for the setting “dose: 400.0 mg/kg/injection, schedule: Q01DX009 (ip), vehicle: saline”, the survivor count is recorded as 0 of 6.
Consider `COc1cccc(N2C(=O)CC(=P(c3ccccc3)(c3ccccc3)c3ccccc3)C2=O)c1`, for which, under setting [3], the survivor count is on record as 3 of 6.
Take `CC1(C)OCC(C2OC(=O)C=C2OS(=O)(=O)O)O1` (stereo not given): the survivor count by setting is: under setting [2], 1 of 6; under setting [3], 0 of 6.
For the compound `CC1CCCC(C)N1CC(O)c1ccccc1` (stereo not given), the survivor count is given as 2 of 6 (dose: 100.0 mg/kg/injection, schedule: Q04DX003 (ip), vehicle: saline with Tween-80); 0 of 6 (dose: 200.0 mg/kg/injection, schedule: Q04DX003 (ip), vehicle: saline with Tween-80); 0 of 6 under setting [5].
On to `c1ccc(N=P(c2ccccc2)(c2ccccc2)c2ccccc2)cc1`, for which, under setting [8], the survivor count was 1 of 4.
`COC1CC2C(NC(C)=O)CCc3cc(C)c(C)c(C)c3C2CCC1O.[Cl][Zn][Cl]` (stereo not given): the survivor count is 0 of 6 (dose: 75.0 mg/kg/injection, schedule: Q01DX001 (ip), vehicle: acetone); 1 of 6 (dose: 150.0 mg/kg/injection, schedule: Q01DX001 (ip), vehicle: acetone); 0 of 6 (dose: 300.0 mg/kg/injection, schedule: Q01DX001 (ip), vehicle: acetone).
As for `Cc1cccc(Cl)c1N=C=O`, the survivor count under setting [8] was 0 of 4.
Consider `CSC(Cl)=C(Cl)Cl`, for which the survivor count was 1 of 6 under setting [9] and 0 of 6 under setting [8].
Take `Cc1nc(N)[nH]c(=O)c1CCCNS(=O)(=O)c1ccc(C(=O)O)cc1`: the survivor count (dose: 100.0 mg/kg/injection, schedule: Q04DX002 (ip), vehicle: Klucel (hydroxypropylcellulose) (HPC)) is reported as 3 of 3.
Take `COc1ccc(/C=C(\SS/C(=C/c2ccc(OC)cc2)C(=O)O)C(=O)O)cc1`: under setting [8], the survivor count is on record as 0 of 4.
Regarding `O=C1C(NC(=O)C2CCCCC2)=C(N2CC2)C(=O)C(NC(=O)C2CCCCC2)=C1N1CC1`, the T/C (dose: 200.0 mg/kg/injection, schedule: Q01DX Z (ip), vehicle: Klucel (hydroxypropylcellulose) (HPC)) is 125 % of control.
As to `CCCCCCCCCCCC[n+]1cccc(C)c1`, the survivor count (dose: 10.0 mg/kg/injection, schedule: Q01DX001 (ip), vehicle: saline) was 2 of 4; the survivor count (dose: 20.0 mg/kg/injection, schedule: Q01DX001 (ip), vehicle: saline) is listed as 2 of 4; the survivor count (dose: 40.0 mg/kg/injection, schedule: Q01DX001 (ip), vehicle: saline) is recorded as 0 of 4; the survivor count (dose: 50.0 mg/kg/injection, schedule: Q01DX001 (ip), vehicle: saline) is listed as 0 of 4; the survivor count (dose: 80.0 mg/kg/injection, schedule: Q01DX001 (ip), vehicle: saline) is on record as 0 of 4; the survivor count (dose: 100.0 mg/kg/injection, schedule: Q01DX001 (ip), vehicle: saline) was 0 of 4. Moreover, the survivor count reads like this: under setting [9], 0 of 4; under setting [8], 0 of 4.
As to `CCCCCCCCCCCCCCCCCc1c(Cl)c(Cl)c(Cl)c(Cl)c1Cl`, the survivor count was 6 of 6 (dose: 200.0 mg/kg/injection, schedule: Q01DX001 (ip), vehicle: Klucel (hydroxypropylcellulose) (HPC)) and 6 of 6 (dose: 400.0 mg/kg/injection, schedule: Q01DX001 (ip), vehicle: Klucel (hydroxypropylcellulose) (HPC)).
On to `N/N=C1\c2ccccc2-c2cc([N+](=O)[O-])ccc21`, for which the survivor count (dose: 400.0 mg/kg/injection, schedule: Q01DX001 (ip), vehicle: carboxymethylcellulose (CMC)) is 0 of 4.
On to `COc1cc(/C=N/NC(=O)CN(C)C)cc(OC)c1N(CCCl)CCCl`, for which, under “dose: 100.0 mg/kg/injection, schedule: Q01DX009 (ip), vehicle: Klucel (hydroxypropylcellulose) (HPC)”, the T/C was 129 % of control. Besides, the survivor count is, setting by setting: (dose: 200.0 mg/kg/injection, schedule: Q01DX009 (ip), vehicle: Klucel (hydroxypropylcellulose) (HPC)) 3 of 6; under setting [1], 0 of 6.
For the compound `O=C1CCOP(=O)(NCCCl)N1CCCl` (stereo not given), the survivor count reads like this: under setting [7], 3 of 3; (dose: 200.0 mg/kg/injection, schedule: Q04DX002 (ip), vehicle: DMSO) 3 of 3; (dose: 400.0 mg/kg/injection, schedule: Q04DX002 (ip), vehicle: DMSO) 3 of 3. For the same compound, for the setting “dose: 200.0 mg/kg/injection, schedule: Q04DX002 (ip), vehicle: saline”, the T/C is 136 % of control.
